# Measured values published in PubChem BioAssay AID651784 (National Center for Advancing Translational Sciences (NCATS), 2012).
# Inconclusive results, whose numbers are uncertain, are shown with a selection of clear calls. Potencies beside an inconclusive call are fits to weak or partial responses and may not hold up. Activity calls are given as the source filed them. The call rests on the fitted dose curve; in most records, active means well fitted inhibition curve with a large enough effect; inconclusive means small, poorly fitted or top-dose-only effect; inactive means no such curve, though single readings can be large or run the other way.
# Assay: Acumen qHTS Assay for Inhibitors of the mTORC1 Signaling Pathway in MEF (Tsc2-/-, p53-/-) Cells: Hit Validation;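 further: phospho-rpS6 Ser235/236 immunofluorescence normalized to propidium iodide cell count; nearly all actives have a fitted effect of over 65% in size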
# Details: Acumen imaging
# Potency means the concentration at half of the fitted maximal effect.
row,SMILES,Potency
1,CN(C)CCN(Cc1ccco1)C(=O)c1cc2c(s1)-c1ccccc1OC2,"inconclusive: 26.1 µM [inhibitor, single point]"
2,Cc1ccc(-c2nc3sccn3c2Nc2ccc(C)c(C)c2)cc1,"inconclusive: 5.85 µM [inhibitor, full curve]"
3,CCN(c1ccccc1)S(=O)(=O)c1cc(C(=O)Nc2ccc(Br)cc2)ccc1F,"inconclusive: 11.7 µM [inhibitor, partial curve, poor fit]"
4,COc1ccccc1Nc1cc(C(=O)NCCCN(C)C2CCCCC2)c2ccccc2n1,"inconclusive: 23.3 µM [inhibitor, single point]"
5,CCCCOc1cccc(C(=O)N(Cc2cccs2)c2ccc(OC)cc2)c1,active: 16.5 µM
6,Cc1cccc(CS(=O)(=O)c2ncc(Cl)c(C(=O)Nc3nnc(C(C)C)s3)n2)c1,"inconclusive: 9.27 µM [inhibitor, partial curve, poor fit]"
7,CCOC(=O)c1ccc(NC(=O)c2nc(S(=O)(=O)Cc3ccccc3)ncc2Cl)cc1,active: 4.65 µM
8,COc1cccc(C(=O)CC2(O)C(=O)N(Cc3ccccc3)c3ccccc32)c1 (centres undefined),"inconclusive: 2.61 µM [inhibitor, full curve]"
9,COc1cc2nc(Nc3ccc(C)c(C)c3)nc(N)c2cc1OC,"inconclusive: 16.5 µM [inhibitor, single point]"
10,O=c1oc2ccccc2cc1-c1cn2cc(Cc3ccccc3F)sc2n1,active: 16.5 µM
11,CCOC(=O)CSc1nc2cc3c(cc2c(=O)n1CCCCCC(=O)NCc1ccc2c(c1)OCO2)OCO3,"inconclusive: 16.5 µM [inhibitor, single point]"
12,CCOc1ccc(S(=O)(=O)Nc2ccc(OC)c(Cl)c2)c2cccnc12,"inconclusive: 3.29 µM [inhibitor, single point]"
13,Cc1ccc(Nc2nc(C(N)=O)c(NC(=O)c3ccccc3Br)s2)cc1,active: 5.85 µM
14,Oc1ccc(NCc2ccccc2OCc2ccccc2Cl)cc1,"inconclusive: 23.3 µM [inhibitor, single point]"
15,O=C(NCc1ccccc1Cl)C(=O)NCC(c1cccs1)S(=O)(=O)c1cccs1 (centres undefined),"inconclusive: 23.3 µM [inhibitor, single point]"
16,O=S(=O)(NCc1nc2cccnc2n1Cc1ccccc1Cl)c1ccc(F)c(Cl)c1,"inconclusive: 11.7 µM [inhibitor, partial curve]"
17,Cc1ccc2[nH]c(=O)c3cc(C(=O)NCCCN4CCC(C)CC4)sc3c2c1,active: 13.1 µM
18,CCc1cccc(NC(=O)c2oc3ccc4c(c3c2C)C(=O)CC(C)(C)O4)c1,"inconclusive: 23.3 µM [inhibitor, single point]"
19,CCCCNC(=O)c1ccc2c(c1)N=C(CC)c1ccccc1S2,"inconclusive: 5.85 µM [inhibitor, partial curve, poor fit]"
20,CCOC(=O)Cc1ccc(NC(=O)n2ncc3cc(Cl)ccc32)cc1,active: 8.26 µM
21,O=C(NCC(c1cccs1)S(=O)(=O)c1cccs1)c1ccccc1 (centres undefined),"inconclusive: 0.521 µM [inhibitor, full curve]"
22,Cc1ccc(N(CC(O)Cn2c3ccccc3c3ccccc32)S(=O)(=O)c2ccc(F)cc2)cc1 (centres undefined),"inconclusive: 26.1 µM [inhibitor, single point]"
23,COc1ccc(Cl)cc1NC(=O)c1c(NCc2cccnc2)sc2c1CCC(C)C2 (centres undefined),"inconclusive: 18.5 µM [inhibitor, single point]"
24,O=C(Cn1cc(S(=O)(=O)Cc2cccc(Cl)c2)c2ccccc21)Nc1ccccc1C(F)(F)F,"inconclusive: 26.1 µM [inhibitor, single point]"
25,COc1ccccc1NC(=O)C1=C(C)Nc2nc(SCc3ccccc3)nn2C1c1cccs1 (centres undefined),"inconclusive: 13.1 µM [inhibitor, single point]"
26,CCc1ccc(C(=O)CC2(O)C(=O)N(Cc3ccc(C)cc3)c3ccccc32)cc1 (centres undefined),"inconclusive: 1.47 µM [inhibitor, full curve, poor fit]"
27,CCC(C)S(=O)(=O)c1oc(-c2cccs2)nc1S(=O)(=O)c1ccccc1 (centres undefined),active: 0.927 µM
28,CCN1CCOC(=O)C1CC(=O)Nc1cc(C)cc(C)c1 (centres undefined),"inconclusive: 16.5 µM [inhibitor, single point]"
29,CCNS(=O)(=O)c1ccc(NC(=O)CSc2nc(-c3ccco3)cc(C(F)(F)F)n2)cc1,"inconclusive: 16.5 µM [inhibitor, single point]"

# A different layout for two compounds above:
row	SMILES	Potency
1	CN(C)CCN(Cc1ccco1)C(=O)c1cc2c(s1)-c1ccccc1OC2	inconclusive: 26.1 µM [inhibitor, single point]
29	CCNS(=O)(=O)c1ccc(NC(=O)CSc2nc(-c3ccco3)cc(C(F)(F)F)n2)cc1	inconclusive: 16.5 µM [inhibitor, single point]
